# Assay results taken from article PMC6305444, “Advancement of the 5-Amino-1-(Carbamoylmethyl)-1H-1,2,3-Triazole-4-Carboxamide Scaffold to Disarm the Bacterial SOS Response” (Frontiers in Microbiology, 2018).
# Test system: recA promoter GFP reporter (SOS response)
# Test: Cell-based SOS reporter assay (GFP under recA promoter, ciprofloxacin-induced)
# Details: E. coli MG1655 ΔsulA ΔtolC, flow cytometry
# Method: An E. coli MG1655 strain lacking sulA (ΔsulA) and the tolC transporter (ΔtolC) ([Mo et al., 2016]) was transformed with a reporter plasmid in which gfp expression was under the control of the recA promoter (pMS201 pRecA GFP) ([Zaslaver et al., 2006]). To perform assays overnight, cultures of the reporter strain were diluted 100-fold in M9 minimal media and grown at 37°C with agitation to an OD595 of ∼0.6. For each reaction sample 100 μL of culture were mixed with 100 μL of M9 minimal media containing ciprofloxacin (256 ng/mL). Pre-diluted compounds were added (5 μL) in DMSO and cultures were incubated at 37°C with agitation for 2 h after which the cells were fixed by adding 200 μL of phosphate buffered saline, pH 7.4 containing 1% paraformaldehyde. After 1 h of fixing, the cells were spun down at 4,000 rpm and re-suspended in phosphate buffered saline, pH 7.4. Fixed cells were analyzed using flow cytometry (BD FACSCalibur, Ex/Em: 488 nm/530 nm) and the mean fluorescence of 20,000 cells in each condition was recorded.
smiles,measurement,value
"CCOc1ccc(NC(=O)Cn2nnc(C(=O)Nc3ccccc3)c2N)cc1 [Compound 14, 5-amino-1-{2-[(4-ethoxyphenyl)amino]-2-oxoethyl}-N-phenyl-1H-1,2,3-triazole-4-carboxamide]",effect on cell size (side-scatter),not impacted; also recorded: without impacting cell size

# “Also recorded” adds a separate entry of the source.
